For 2 substances, binding results are on record in PMC12177104.

Protein sequences, listed by entry. Tags and fused reporters are not part of them.
UniProt P49841: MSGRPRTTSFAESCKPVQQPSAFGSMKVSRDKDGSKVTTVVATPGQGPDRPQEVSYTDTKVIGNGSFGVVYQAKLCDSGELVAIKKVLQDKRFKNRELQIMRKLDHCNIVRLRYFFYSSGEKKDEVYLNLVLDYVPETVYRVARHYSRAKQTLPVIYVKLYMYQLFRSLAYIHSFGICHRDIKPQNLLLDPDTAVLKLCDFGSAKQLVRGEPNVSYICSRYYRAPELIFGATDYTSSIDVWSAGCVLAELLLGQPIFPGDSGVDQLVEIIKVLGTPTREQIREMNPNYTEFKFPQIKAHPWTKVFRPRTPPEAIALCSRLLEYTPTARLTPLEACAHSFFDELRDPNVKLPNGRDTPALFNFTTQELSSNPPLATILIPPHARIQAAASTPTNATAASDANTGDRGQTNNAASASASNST
UniProt P35579: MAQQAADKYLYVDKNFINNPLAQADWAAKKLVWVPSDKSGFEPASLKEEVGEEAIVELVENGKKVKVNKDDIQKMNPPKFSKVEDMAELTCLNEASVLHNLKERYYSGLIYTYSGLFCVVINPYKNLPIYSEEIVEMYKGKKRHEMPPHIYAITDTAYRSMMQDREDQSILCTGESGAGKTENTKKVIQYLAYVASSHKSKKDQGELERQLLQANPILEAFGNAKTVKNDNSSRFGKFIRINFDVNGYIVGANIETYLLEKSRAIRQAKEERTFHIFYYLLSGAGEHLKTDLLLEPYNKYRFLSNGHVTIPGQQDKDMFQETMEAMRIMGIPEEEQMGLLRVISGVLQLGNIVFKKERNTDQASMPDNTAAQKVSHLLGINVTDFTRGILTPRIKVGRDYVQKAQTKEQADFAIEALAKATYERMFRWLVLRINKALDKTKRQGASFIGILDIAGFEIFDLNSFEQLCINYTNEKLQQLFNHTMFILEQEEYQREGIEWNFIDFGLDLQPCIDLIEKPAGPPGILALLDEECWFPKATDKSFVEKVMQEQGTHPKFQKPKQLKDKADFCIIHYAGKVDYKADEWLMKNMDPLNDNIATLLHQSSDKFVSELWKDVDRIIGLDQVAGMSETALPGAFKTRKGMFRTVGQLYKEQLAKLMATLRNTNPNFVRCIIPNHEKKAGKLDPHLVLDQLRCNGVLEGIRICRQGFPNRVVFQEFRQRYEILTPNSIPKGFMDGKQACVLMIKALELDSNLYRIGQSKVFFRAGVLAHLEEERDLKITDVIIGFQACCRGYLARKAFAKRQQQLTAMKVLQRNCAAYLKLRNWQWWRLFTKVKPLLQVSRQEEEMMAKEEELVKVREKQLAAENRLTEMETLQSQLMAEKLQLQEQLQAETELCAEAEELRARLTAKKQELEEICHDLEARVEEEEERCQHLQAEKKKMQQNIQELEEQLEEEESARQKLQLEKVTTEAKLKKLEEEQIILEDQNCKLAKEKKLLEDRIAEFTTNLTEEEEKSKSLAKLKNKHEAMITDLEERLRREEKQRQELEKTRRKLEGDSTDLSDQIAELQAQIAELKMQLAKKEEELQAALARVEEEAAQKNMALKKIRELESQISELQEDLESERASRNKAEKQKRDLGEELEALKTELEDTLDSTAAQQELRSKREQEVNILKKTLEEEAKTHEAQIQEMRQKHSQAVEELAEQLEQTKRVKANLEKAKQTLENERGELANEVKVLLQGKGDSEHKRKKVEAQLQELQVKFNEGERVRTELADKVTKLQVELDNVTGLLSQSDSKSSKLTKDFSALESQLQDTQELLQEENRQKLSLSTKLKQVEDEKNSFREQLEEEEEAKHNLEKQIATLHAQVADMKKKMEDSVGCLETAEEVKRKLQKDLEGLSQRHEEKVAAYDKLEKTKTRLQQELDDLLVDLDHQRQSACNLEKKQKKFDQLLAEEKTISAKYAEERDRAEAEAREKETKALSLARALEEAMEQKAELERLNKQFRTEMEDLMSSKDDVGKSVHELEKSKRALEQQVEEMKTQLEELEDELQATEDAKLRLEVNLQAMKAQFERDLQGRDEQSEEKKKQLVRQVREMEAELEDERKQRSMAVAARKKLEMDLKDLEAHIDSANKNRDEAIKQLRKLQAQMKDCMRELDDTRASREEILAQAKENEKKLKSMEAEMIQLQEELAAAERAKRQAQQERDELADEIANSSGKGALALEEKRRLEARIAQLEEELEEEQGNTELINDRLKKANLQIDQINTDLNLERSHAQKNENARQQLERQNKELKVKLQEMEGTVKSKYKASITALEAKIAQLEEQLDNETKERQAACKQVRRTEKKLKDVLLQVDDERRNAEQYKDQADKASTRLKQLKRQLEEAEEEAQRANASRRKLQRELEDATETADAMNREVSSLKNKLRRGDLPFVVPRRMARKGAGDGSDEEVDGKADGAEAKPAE

For experiment [1], the target named is T1, Phosphoglycerate kinase 1 (PGK1) (UniProt P00558).
T1 sequence: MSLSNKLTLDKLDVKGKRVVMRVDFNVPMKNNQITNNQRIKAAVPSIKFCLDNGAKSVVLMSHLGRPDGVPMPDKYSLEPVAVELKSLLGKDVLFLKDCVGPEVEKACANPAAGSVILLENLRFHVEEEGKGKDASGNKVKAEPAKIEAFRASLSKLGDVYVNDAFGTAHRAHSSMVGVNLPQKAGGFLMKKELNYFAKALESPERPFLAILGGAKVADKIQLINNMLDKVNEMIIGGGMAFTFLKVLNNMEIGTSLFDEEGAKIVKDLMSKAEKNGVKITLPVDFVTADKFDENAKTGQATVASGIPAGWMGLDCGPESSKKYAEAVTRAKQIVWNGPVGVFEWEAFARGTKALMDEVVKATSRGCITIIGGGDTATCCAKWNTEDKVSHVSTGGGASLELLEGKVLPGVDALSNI
Description: co-IP; ESCC cell lysates, precipitating antibody not stated (Fig 4L, Fig 5N); EBC lysis buffer, Protein-A Sepharose, NETN washes; immunoblot; also under hypoxia, which the paper says enhanced the PGK1-MYH9 interaction.

In the next experiment the target is T2, PGK1-Flag (UniProt P00558).
T2 sequence: T1 sequence
Description: co-IP; Flag-tagged constructs in KYSE150 cells; IP with Flag antibodies (stated for Fig 4D, E); lysis in EBC buffer (50 mM Tris-HCl pH 8.0, 120 mM NaCl, 0.5% NP-40), 4 h at 4°C, Protein-A Sepharose, washes in NETN buffer; immunoblot. In general terms: A western blot detects proteins with antibodies after separation by electrophoresis.

Results are given in words; binding and its absence hold for the method and conditions named. In cells and extracts the contact can be indirect. Some entries that bind do so weakly or less than the wild type. For part of these data: Where a sequence is shown, tags or fusion partners need not be part of it.

For the substance “GSK3β (from UniProt P49841 1-420) (enzyme)”, in experiment [1], the binding result was “binds”.
As to “myosin-9 (MYH9), heavy chain of non-muscle myosin IIA (from UniProt P35579 1-1960)”, the binding entry (in experiment [1]; in the experiment with PGK1-Flag) was “binds” in each case.
